Consider one molecule from PMC3634074.

Sequences of proteins named here, by UniProt entry; tags and fusion partners are left off. A change or cut given only in a name is not applied to a line headed by its entry.
UniProt G4RK45: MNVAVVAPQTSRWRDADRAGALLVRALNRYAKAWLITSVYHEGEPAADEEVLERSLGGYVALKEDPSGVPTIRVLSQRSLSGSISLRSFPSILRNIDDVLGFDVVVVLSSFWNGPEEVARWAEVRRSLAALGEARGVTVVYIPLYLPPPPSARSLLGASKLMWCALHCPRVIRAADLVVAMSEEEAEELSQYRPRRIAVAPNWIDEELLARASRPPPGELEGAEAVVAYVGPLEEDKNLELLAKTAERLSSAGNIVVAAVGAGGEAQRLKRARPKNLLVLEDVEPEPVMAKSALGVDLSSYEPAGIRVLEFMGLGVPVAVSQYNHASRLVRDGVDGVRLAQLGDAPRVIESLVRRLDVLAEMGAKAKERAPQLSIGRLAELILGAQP

Results are given in words; binding and its absence hold for the method and conditions named. Binding can be weak; no strength is given.

This assay addresses Thermoproteus tenax putative glycosyltransferase (GT) (Thermoproteus tenax) (UniProt G4RK45). In words: two-hybrid; Matchmaker system 3 (Clontech), yeast AH109 co-transformed with pGADT7::TTX_1305 and pGBKT7::TTX_1304; drops on SD plates with X-alpha-gal lacking leucine, tryptophan, histidine and adenine; three days at 30°C.

B1: Thermoproteus tenax trehalose-6-phosphate synthase/phosphatase (TPSP) (enzyme, UniProt G4RK44 1-731)
chain: MRLIVVSNRLPVTISPSGEIRESVGGLATAMKSFLGAVNGGRELGLEEVVWVGWSGVPSERESNDLRERLRGMGLEPVPLSSEEVEGFYEGFSNSTLWPLFHGFSEYATYEEKHWRAYRGVNEKYAKAVVALARPGDLVWIHDYHLMLAPAIVREAAEVGVGFFLHIPFPPAELLQLLPSEWRREILEGLLGSDLVGFHTYEYSANFSRSVVRFLGYKVEMGAIAVGHRRVRVGVFPIGIDFDRFYNSSQDPSVVEEMAKLREMLGRAKVVFSIDRLDYTKGVLRRVAAWERFLREHPEWRGRAVFVLVVVPSRTGVPMYEEMKRQIDREVGRINGELGELNWVPIVYLYRFIPSPTLMALYNIADVALITPLRDGMNLVAKEFVASKRDCRGVLILSELAGASKELAEALVINPNDVGGTAEAIAEALSMSEDEQCRRIRAMQERLRMRDVVRWGTDFIYSLISAKSAREEVEKALRYMEELSVDKLKSDFAKAKRRLLLLDYDGTLVPHYPYPHMAVPDGDLLELLSRLAALPETAVYVVSGRGRDFLDGWLGRLPVGLVAEHGFFLKHPGGEWKSLGKVDPSWRQYAKGIMEDFASNVPGSFVEVKEAGIAWHYRNADETIAEKAVVELIDALSNALAGSGLSILRGKKVVEVRPAGYTKGTAAKMLLDELSPDFVFVAGDDETDEGMFEVAPQSAYTVKVGPGPTLAKFRVGDYRGLRSLLEQLRPP
Turning to B1, the binding result is given as “binds”.
